Data taken from article doi:10.1101/2021.01.28.428596.

Columns and labels:
[1] = biological target: T1, REMORIN-… RECEPTOR 1 (RIR1) cytoplasmic domain, yeast two-hybrid fusion (Arabidopsis thaliana) (UniProt C0LGG9); assay: two-hybrid
T1 sequence: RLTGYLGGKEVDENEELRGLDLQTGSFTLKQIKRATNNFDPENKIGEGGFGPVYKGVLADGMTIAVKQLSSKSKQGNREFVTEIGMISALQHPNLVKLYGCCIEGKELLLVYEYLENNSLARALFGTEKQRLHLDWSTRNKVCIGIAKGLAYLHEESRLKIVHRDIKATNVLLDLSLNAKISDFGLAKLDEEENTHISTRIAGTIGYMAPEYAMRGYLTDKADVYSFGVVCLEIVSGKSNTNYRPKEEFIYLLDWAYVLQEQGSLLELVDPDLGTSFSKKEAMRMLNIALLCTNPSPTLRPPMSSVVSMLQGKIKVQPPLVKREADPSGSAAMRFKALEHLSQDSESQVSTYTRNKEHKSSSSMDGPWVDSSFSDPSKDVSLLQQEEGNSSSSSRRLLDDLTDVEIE

[2] = biological target: T2, RIR1-GFP (ProRIR1:RIR1-GFP in the rir1-1 mutant) (Arabidopsis thaliana) (UniProt C0LGG9); assay: co-IP
T2 sequence: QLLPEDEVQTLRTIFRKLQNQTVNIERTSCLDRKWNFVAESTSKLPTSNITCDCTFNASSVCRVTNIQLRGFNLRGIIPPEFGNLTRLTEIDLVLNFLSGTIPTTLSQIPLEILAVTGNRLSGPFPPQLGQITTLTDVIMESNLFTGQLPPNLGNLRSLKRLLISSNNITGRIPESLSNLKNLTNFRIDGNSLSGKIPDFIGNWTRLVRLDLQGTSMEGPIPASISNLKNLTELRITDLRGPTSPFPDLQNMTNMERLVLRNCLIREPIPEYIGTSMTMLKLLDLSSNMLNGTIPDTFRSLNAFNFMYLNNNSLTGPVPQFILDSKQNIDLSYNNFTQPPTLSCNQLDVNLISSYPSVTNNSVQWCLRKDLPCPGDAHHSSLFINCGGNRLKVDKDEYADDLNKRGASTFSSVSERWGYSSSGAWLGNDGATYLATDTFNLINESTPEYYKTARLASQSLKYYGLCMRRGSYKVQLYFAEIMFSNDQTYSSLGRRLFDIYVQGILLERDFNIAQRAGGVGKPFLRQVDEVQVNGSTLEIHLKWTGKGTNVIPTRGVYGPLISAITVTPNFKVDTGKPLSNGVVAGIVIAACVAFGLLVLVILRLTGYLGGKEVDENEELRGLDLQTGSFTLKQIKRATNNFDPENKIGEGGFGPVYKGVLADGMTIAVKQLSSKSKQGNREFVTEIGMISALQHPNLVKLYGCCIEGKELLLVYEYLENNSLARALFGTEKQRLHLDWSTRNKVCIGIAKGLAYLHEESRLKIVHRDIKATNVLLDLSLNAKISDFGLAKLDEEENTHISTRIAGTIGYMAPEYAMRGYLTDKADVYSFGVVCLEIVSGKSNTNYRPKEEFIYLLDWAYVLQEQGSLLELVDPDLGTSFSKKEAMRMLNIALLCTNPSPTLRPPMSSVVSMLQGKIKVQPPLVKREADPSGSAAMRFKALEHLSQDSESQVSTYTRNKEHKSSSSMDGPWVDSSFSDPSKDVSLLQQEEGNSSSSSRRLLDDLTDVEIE

[3] = biological target: YFP-REM1.2 (ProREM1.2:YFP-REM1.2 in the rem1.2 mutant) (Arabidopsis thaliana); assay: co-IP

Molecule: REM1.2^T70A, yeast two-hybrid fusion (Arabidopsis thaliana)
binding [1]: binds

Molecule: REM1.2^S11/S13/T18/T19A, yeast two-hybrid fusion (Arabidopsis thaliana)
binding [1]: no binding

Molecule: REM1.2^T41/T46A, yeast two-hybrid fusion (Arabidopsis thaliana)
binding [1]: binds

Further lines, results first:

binding [2]: binds
Molecule: mCherry-REM1.2 (ProREM1.2-mCherry-REM1.2 in rir1-1/RIR1-GFP#3) (Arabidopsis thaliana)

binding [3]: binds
B1: endogenous REM1.3 (protein, UniProt O80837 1-190)
chain: MAEEQKTSKVDVESPAVLAPAKEPTPAPVEVADEKIHNPPPVESKALAVVEKPIEEHTPKKASSGSADRDVILADLEKEKKTSFIKAWEESEKSKAENRAQKKISDVHAWENSKKAAVEAQLRKIEEKLEKKKAQYGEKMKNKVAAIHKLAEEKRAMVEAKKGEELLKAEEMGAKYRATGVVPKATCGCF

Results are given in words; binding and its absence hold for the method and conditions named. Binding calls can cover weak binding; strength is not graded here. For some assays here: Tags and fused reporters may be left off the sequences shown. For some assays here: Binding seen in cells or lysates may run through a third protein. Each block holds one molecule with its values, some of them ahead of it.
